Reference: the supplement of paper PMC6078165
The reference is the same well before dosing, and untreated signal decays as well.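 Fibroblast labels denote human fibroblasts, mainly primary ones from uterus (C12385, HUF), lung (H6013), bone (Hs27A), adrenal (HADF) and skin (WS1), plus mammary HMF and breast cancer-associated Hs343T. Cancer cells are basal-like or mesenchymal-like triple-negative breast cancer lines. A hit is a response shift exceeding 3x replicate standard deviation. The tissue of the other fibroblasts is not given here.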

Test system: MDAMB436
Experiment: relative JC-1 red fluorescence (viability) vs pre-drug, coculture with fibroblast (fraction); higher = more viable cancer cells
Procedure: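 JC-1 labelled TNBC cells cocultured 1:1 (1,500 cells each) with CellTrace Violet stained primary or stromal fibroblasts in 384-well plates in FluoroBrite medium, treated with one of 42 anticancer drugs at 0.1, 1, 10 or 100 uM. JC-1 red fluorescence (mitochondrial integrity in cancer cells only) was read by plate reader every 8 h for 72 h. Values are normalised to each well's pre-drug value. The stock of one drug was tenfold lower, so its dose labels may be too high.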

N#Cc1ccc(C(c2ccc(C#N)cc2)n2cncn2)cc1 [Letrozole]
relative JC-1 red fluorescence
Conditions | 8 h | 16 h | 24 h | 32 h | 40 h | 48 h | 56 h | 64 h | 72 h
0.1 µM, coculture fibroblast: C12385 | 0.7925 | 0.683 | 0.639 | 0.5476 | 0.4945 | 0.463 | 0.44 | 0.417 | 0.412
0.1 µM, coculture fibroblast: H6013 | 0.777 | 0.722 | 0.694 | 0.68 | 0.658 | 0.676 | 0.641 | 0.623 | 0.582
0.1 µM, coculture fibroblast: H6019 | 0.6912 | 0.633 | 0.581 | 0.4947 | 0.452 | 0.427 | 0.399 | 0.376 | 0.349
0.1 µM, coculture fibroblast: H6076 | 0.7345 | 0.654 | 0.622 | 0.575 | 0.563 | 0.54 | 0.547 | 0.534 | 0.528
0.1 µM, coculture fibroblast: H6231 | 0.735 | 0.668 | 0.698 | 0.62 | 0.614 | 0.575 | 0.562 | 0.546 | 0.53
0.1 µM, coculture fibroblast: HADF | 0.815 | 0.68 | 0.632 | 0.582 | 0.546 | 0.546 | 0.495 | 0.481 | 0.451
0.1 µM, coculture fibroblast: HCFa | 0.7011 | 0.63 | 0.61 | 0.572 | 0.545 | 0.563 | 0.497 | 0.491 | 0.435
0.1 µM, coculture fibroblast: HCPF | 0.739 | 0.674 | 0.653 | 0.59 | 0.572 | 0.544 | 0.517 | 0.498 | 0.481
0.1 µM, coculture fibroblast: HHSteC | 0.828 | 0.7628 | 0.737 | 0.701 | 0.687 | 0.691 | 0.636 | 0.612 | 0.559
0.1 µM, coculture fibroblast: HMF | 0.751 | 0.69 | 0.658 | 0.619 | 0.602 | 0.578 | 0.581 | 0.553 | 0.541
0.1 µM, coculture fibroblast: HPFa | 0.9001 | 0.787 | 0.74 | 0.682 | 0.659 | 0.6534 | 0.578 | 0.543 | 0.4792
0.1 µM, coculture fibroblast: HUF | 0.862 | 0.739 | 0.704 | 0.628 | 0.571 | 0.543 | 0.51 | 0.5 | 0.493
0.1 µM, coculture fibroblast: Hs5 | 0.749 | 0.6709 | 0.6517 | 0.594 | 0.5846 | 0.547 | 0.56502 | 0.528 | 0.522
0.1 µM, coculture fibroblast: Hs27A | 0.812 | 0.736 | 0.704 | 0.682 | 0.655 | 0.713 | 0.612 | 0.591 | 0.514
0.1 µM, coculture fibroblast: Hs343T | 0.796 | 0.724 | 0.662 | 0.608 | 0.568 | 0.526 | 0.501 | 0.476 | 0.465
0.1 µM, coculture fibroblast: WS1 | 0.74 | 0.66 | 0.621 | 0.533 | 0.483 | 0.457 | 0.431 | 0.402 | 0.393
1 µM, coculture fibroblast: C12385 | 0.8168 | 0.714 | 0.6825 | 0.5983 | 0.5512 | 0.519 | 0.499 | 0.476 | 0.474
1 µM, coculture fibroblast: H6013 | 0.842 | 0.735 | 0.751 | 0.747 | 0.73 | 0.742 | 0.709 | 0.688 | 0.643
1 µM, coculture fibroblast: H6019 | 0.7461 | 0.624 | 0.599 | 0.5233 | 0.481 | 0.454 | 0.424 | 0.396 | 0.364
1 µM, coculture fibroblast: H6076 | 0.751 | 0.631 | 0.595 | 0.566 | 0.549 | 0.534 | 0.535 | 0.536 | 0.541
1 µM, coculture fibroblast: H6231 | 0.784 | 0.684 | 0.654 | 0.613 | 0.585 | 0.561 | 0.544 | 0.52 | 0.498
1 µM, coculture fibroblast: HADF | 0.814 | 0.7307 | 0.71 | 0.684 | 0.666 | 0.677 | 0.637 | 0.636 | 0.6
1 µM, coculture fibroblast: HCFa | 0.768 | 0.665 | 0.635 | 0.598 | 0.564 | 0.575 | 0.509 | 0.5 | 0.443
1 µM, coculture fibroblast: HCPF | 0.7855 | 0.707 | 0.648 | 0.602 | 0.569 | 0.538 | 0.508 | 0.496 | 0.468
1 µM, coculture fibroblast: HHSteC | 0.8042 | 0.728 | 0.699 | 0.662 | 0.64 | 0.652 | 0.599 | 0.572 | 0.519
1 µM, coculture fibroblast: HMF | 0.7789 | 0.679 | 0.6423 | 0.618 | 0.592 | 0.564 | 0.556 | 0.543 | 0.529
1 µM, coculture fibroblast: HPFa | 0.867 | 0.796 | 0.746 | 0.704 | 0.676 | 0.676 | 0.592 | 0.566 | 0.494
1 µM, coculture fibroblast: HUF | 0.8095 | 0.6945 | 0.668 | 0.588 | 0.533 | 0.509 | 0.482 | 0.463 | 0.453
1 µM, coculture fibroblast: Hs5 | 0.7869 | 0.706 | 0.702 | 0.649 | 0.639 | 0.601 | 0.61 | 0.583 | 0.57
1 µM, coculture fibroblast: Hs27A | 0.784 | 0.7 | 0.659 | 0.626 | 0.59 | 0.623 | 0.546 | 0.517 | 0.452
1 µM, coculture fibroblast: Hs343T | 0.864 | 0.749 | 0.675 | 0.639 | 0.587 | 0.541 | 0.512 | 0.484 | 0.466
1 µM, coculture fibroblast: WS1 | 0.769 | 0.657 | 0.6514 | 0.5758 | 0.529 | 0.503 | 0.485 | 0.453 | 0.435
10 µM, coculture fibroblast: C12385 | 0.766 | 0.7081 | 0.6758 | 0.582 | 0.541 | 0.5171 | 0.4976 | 0.48164 | 0.4742
10 µM, coculture fibroblast: H6013 | 0.773 | 0.731 | 0.7077 | 0.683 | 0.66 | 0.683 | 0.648 | 0.628 | 0.59
10 µM, coculture fibroblast: H6019 | 0.7564 | 0.7035 | 0.665 | 0.584 | 0.539 | 0.518 | 0.487 | 0.459 | 0.441
10 µM, coculture fibroblast: H6076 | 0.696 | 0.615 | 0.586 | 0.548 | 0.533 | 0.518 | 0.53 | 0.522 | 0.507
10 µM, coculture fibroblast: H6231 | 0.672 | 0.545 | 0.574 | 0.491 | 0.486 | 0.454 | 0.45 | 0.436 | 0.43
10 µM, coculture fibroblast: HADF | 0.804 | 0.778 | 0.753 | 0.725 | 0.706 | 0.729 | 0.663 | 0.651 | 0.61
10 µM, coculture fibroblast: HCFa | 0.827 | 0.789 | 0.77 | 0.72 | 0.685 | 0.685 | 0.612 | 0.6 | 0.541
10 µM, coculture fibroblast: HCPF | 0.732 | 0.693 | 0.677 | 0.63 | 0.619 | 0.587 | 0.554 | 0.531 | 0.506
10 µM, coculture fibroblast: HHSteC | 0.782 | 0.747 | 0.709 | 0.676 | 0.666 | 0.678 | 0.616 | 0.594 | 0.543
10 µM, coculture fibroblast: HMF | 0.7058 | 0.6389 | 0.5994 | 0.5512 | 0.527 | 0.483 | 0.48 | 0.46 | 0.455
10 µM, coculture fibroblast: HPFa | 0.876 | 0.806 | 0.771 | 0.719 | 0.694 | 0.698 | 0.608 | 0.573 | 0.496
10 µM, coculture fibroblast: HUF | 0.821 | 0.7514 | 0.727 | 0.65 | 0.5996 | 0.5676 | 0.549 | 0.5354 | 0.536
10 µM, coculture fibroblast: Hs5 | 0.713 | 0.641 | 0.595 | 0.523 | 0.497 | 0.4541 | 0.457 | 0.423 | 0.418
10 µM, coculture fibroblast: Hs27A | 0.816 | 0.73 | 0.713 | 0.678 | 0.642 | 0.7041 | 0.6117 | 0.598 | 0.5204
10 µM, coculture fibroblast: Hs343T | 0.6922 | 0.6135 | 0.55 | 0.501 | 0.462 | 0.43 | 0.421 | 0.414 | 0.412
10 µM, coculture fibroblast: WS1 | 0.786 | 0.722 | 0.685 | 0.6 | 0.56 | 0.528 | 0.503 | 0.465 | 0.45
100 µM, coculture fibroblast: C12385 | 0.848 | 0.764 | 0.708 | 0.638 | 0.582 | 0.5488 | 0.5089 | 0.478 | 0.454
100 µM, coculture fibroblast: H6013 | 0.91 | 0.875 | 0.808 | 0.796 | 0.779 | 0.78 | 0.753 | 0.727 | 0.687
100 µM, coculture fibroblast: H6019 | 0.809 | 0.73352 | 0.7 | 0.625 | 0.583 | 0.562 | 0.519 | 0.479 | 0.443
100 µM, coculture fibroblast: H6076 | 0.80185 | 0.695 | 0.625 | 0.574 | 0.535 | 0.511 | 0.499 | 0.488 | 0.479
100 µM, coculture fibroblast: H6231 | 0.826 | 0.738 | 0.635 | 0.599 | 0.547 | 0.504 | 0.477 | 0.443 | 0.419
100 µM, coculture fibroblast: HADF | 0.861 | 0.797 | 0.752 | 0.711 | 0.684 | 0.683 | 0.625 | 0.605 | 0.555
100 µM, coculture fibroblast: HCFa | 0.831 | 0.757 | 0.7081 | 0.676 | 0.628 | 0.634 | 0.567 | 0.553 | 0.498
100 µM, coculture fibroblast: HCPF | 0.858 | 0.807 | 0.734 | 0.696 | 0.637 | 0.593 | 0.548 | 0.519 | 0.49
100 µM, coculture fibroblast: HHSteC | 0.8917 | 0.8443 | 0.7931 | 0.745 | 0.714 | 0.708 | 0.641 | 0.605 | 0.546
100 µM, coculture fibroblast: HMF | 0.819 | 0.734 | 0.643 | 0.615 | 0.583 | 0.549 | 0.524 | 0.502 | 0.481
100 µM, coculture fibroblast: HPFa | 0.902 | 0.829 | 0.7735 | 0.7368 | 0.7035 | 0.704 | 0.6207 | 0.5825 | 0.5139
100 µM, coculture fibroblast: HUF | 0.875 | 0.787 | 0.761 | 0.681 | 0.6267 | 0.5923 | 0.5605 | 0.5495 | 0.53997
100 µM, coculture fibroblast: Hs5 | 0.823 | 0.756 | 0.6811 | 0.622 | 0.5904 | 0.5389 | 0.52 | 0.479 | 0.448
100 µM, coculture fibroblast: Hs27A | 0.889 | 0.854 | 0.827 | 0.81 | 0.759 | 0.763 | 0.67 | 0.637 | 0.546
100 µM, coculture fibroblast: Hs343T | 0.816 | 0.704 | 0.62 | 0.562 | 0.526 | 0.484 | 0.458 | 0.44 | 0.426
100 µM, coculture fibroblast: WS1 | 0.8424 | 0.769 | 0.72 | 0.646 | 0.61 | 0.576 | 0.54 | 0.501 | 0.474
